Reference: the supplement of paper PMC10849652
Some of the results follow.

Amino acid sequences for entries named in this document (tags omitted). A change or cut given only in a name is not applied to a line headed by its entry.
UniProt Q9UBU9: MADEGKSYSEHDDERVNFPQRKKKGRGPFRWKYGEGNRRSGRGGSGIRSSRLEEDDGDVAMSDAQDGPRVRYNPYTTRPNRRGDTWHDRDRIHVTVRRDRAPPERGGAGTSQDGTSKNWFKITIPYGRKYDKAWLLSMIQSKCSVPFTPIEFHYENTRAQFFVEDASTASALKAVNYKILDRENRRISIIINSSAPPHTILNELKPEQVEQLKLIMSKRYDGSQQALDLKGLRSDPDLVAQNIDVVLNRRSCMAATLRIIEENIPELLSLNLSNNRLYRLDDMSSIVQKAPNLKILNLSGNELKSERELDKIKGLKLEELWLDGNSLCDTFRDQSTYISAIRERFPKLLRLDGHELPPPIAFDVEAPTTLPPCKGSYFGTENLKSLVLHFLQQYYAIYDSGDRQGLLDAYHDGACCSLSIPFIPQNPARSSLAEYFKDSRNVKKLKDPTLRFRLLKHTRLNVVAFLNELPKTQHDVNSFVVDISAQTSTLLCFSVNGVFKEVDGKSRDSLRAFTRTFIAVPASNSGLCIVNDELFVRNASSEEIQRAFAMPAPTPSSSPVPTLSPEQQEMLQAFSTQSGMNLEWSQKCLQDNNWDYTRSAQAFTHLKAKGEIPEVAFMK
UniProt P11926: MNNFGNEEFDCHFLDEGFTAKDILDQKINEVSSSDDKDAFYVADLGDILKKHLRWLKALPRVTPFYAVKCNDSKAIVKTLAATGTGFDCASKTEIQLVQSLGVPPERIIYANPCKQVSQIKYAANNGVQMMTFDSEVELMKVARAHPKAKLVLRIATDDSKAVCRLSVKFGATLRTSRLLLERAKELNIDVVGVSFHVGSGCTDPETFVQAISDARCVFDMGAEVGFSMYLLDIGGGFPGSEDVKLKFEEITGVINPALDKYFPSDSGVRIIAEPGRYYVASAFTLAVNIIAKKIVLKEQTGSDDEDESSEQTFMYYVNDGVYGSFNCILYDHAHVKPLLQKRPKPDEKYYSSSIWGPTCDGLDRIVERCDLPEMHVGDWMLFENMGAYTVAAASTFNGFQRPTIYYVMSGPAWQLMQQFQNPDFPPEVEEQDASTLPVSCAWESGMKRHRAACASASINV
UniProt Q5BJF6: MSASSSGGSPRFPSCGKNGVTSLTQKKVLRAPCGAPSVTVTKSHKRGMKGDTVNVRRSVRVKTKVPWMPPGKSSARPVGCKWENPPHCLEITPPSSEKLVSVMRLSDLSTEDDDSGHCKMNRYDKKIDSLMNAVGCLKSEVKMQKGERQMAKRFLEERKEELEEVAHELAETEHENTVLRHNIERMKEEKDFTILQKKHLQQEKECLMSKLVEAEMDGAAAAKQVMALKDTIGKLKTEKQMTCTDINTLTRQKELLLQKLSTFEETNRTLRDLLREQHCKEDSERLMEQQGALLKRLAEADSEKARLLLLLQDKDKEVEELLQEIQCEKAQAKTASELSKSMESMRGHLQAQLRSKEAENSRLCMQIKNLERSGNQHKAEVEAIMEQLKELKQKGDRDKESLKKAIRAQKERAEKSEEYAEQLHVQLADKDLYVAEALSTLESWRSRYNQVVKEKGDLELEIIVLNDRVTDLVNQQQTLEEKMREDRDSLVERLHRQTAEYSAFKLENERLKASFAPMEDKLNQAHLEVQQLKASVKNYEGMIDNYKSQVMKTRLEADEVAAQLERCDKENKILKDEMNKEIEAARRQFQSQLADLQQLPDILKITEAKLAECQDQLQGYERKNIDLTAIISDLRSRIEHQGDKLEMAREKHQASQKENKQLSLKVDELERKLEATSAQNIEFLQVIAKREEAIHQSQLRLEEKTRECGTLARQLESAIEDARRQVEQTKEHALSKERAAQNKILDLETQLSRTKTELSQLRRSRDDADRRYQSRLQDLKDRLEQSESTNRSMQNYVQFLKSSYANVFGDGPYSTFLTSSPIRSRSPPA
UniProt P0C024: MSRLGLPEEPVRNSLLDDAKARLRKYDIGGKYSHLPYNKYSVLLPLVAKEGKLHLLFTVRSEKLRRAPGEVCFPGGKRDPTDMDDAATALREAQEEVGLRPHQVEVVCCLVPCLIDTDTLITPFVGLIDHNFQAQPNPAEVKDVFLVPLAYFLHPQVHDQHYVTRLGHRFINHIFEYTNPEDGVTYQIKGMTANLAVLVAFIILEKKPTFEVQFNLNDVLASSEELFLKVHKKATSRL
UniProt Q6PK18: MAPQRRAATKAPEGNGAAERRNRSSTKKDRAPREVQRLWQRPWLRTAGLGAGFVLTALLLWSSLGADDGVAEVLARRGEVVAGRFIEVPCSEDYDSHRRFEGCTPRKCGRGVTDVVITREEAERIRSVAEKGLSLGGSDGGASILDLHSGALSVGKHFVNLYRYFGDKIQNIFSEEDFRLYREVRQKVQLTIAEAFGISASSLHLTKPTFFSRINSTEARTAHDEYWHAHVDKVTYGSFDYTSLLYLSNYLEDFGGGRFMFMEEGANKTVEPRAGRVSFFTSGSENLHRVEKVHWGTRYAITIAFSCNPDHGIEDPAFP
UniProt Q9BZD4: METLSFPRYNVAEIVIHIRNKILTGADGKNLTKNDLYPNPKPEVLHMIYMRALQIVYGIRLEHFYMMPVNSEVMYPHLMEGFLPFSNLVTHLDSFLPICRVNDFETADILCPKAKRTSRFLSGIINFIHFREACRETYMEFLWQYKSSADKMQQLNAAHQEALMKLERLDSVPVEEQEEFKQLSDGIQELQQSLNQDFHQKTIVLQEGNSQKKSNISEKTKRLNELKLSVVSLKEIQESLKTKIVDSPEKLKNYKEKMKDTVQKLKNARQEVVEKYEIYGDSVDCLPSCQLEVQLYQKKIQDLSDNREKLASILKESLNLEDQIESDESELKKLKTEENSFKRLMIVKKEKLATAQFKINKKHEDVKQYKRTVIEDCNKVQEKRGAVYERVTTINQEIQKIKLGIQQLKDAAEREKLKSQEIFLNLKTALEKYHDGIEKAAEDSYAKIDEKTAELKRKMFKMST
UniProt Q96D31, whole entry, looked up: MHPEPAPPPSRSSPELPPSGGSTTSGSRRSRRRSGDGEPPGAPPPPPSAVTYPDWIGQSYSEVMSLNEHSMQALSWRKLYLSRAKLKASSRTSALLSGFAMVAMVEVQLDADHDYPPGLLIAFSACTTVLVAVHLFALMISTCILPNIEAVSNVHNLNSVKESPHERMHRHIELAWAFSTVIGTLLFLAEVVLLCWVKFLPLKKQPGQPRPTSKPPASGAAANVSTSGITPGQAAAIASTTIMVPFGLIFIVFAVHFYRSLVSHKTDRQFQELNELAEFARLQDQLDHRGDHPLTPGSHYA
UniProt Q6N063: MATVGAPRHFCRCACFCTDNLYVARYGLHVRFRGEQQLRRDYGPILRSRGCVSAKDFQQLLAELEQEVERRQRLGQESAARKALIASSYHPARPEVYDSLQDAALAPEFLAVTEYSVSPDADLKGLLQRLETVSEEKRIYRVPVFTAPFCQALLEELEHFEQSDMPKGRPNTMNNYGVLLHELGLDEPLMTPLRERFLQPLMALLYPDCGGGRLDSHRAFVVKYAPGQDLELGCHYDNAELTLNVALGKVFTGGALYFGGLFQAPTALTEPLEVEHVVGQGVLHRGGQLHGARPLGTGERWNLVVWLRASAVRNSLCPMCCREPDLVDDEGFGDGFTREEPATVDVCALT
UniProt O15381: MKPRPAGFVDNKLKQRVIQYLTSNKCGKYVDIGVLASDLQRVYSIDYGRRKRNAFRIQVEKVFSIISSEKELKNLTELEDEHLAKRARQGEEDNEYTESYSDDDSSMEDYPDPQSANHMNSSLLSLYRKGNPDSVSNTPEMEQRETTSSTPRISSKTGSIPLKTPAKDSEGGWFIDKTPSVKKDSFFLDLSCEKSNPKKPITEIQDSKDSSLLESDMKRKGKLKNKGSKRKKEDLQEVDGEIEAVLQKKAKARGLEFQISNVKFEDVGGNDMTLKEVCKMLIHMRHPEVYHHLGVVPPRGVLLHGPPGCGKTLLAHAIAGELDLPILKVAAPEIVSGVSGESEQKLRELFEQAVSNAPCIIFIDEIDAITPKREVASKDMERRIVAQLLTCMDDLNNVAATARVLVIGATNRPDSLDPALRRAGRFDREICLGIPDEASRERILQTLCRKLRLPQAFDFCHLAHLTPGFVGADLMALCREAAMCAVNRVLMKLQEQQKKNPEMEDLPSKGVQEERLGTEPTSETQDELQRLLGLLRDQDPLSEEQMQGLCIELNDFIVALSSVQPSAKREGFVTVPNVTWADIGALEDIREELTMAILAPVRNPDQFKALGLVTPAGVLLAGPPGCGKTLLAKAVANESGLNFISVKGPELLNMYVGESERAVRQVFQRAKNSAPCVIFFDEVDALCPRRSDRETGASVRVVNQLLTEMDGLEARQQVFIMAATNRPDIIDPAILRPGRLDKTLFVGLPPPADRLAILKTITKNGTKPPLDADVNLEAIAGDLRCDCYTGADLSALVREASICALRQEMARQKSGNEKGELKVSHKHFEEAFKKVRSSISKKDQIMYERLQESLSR
UniProt Q9ULJ1: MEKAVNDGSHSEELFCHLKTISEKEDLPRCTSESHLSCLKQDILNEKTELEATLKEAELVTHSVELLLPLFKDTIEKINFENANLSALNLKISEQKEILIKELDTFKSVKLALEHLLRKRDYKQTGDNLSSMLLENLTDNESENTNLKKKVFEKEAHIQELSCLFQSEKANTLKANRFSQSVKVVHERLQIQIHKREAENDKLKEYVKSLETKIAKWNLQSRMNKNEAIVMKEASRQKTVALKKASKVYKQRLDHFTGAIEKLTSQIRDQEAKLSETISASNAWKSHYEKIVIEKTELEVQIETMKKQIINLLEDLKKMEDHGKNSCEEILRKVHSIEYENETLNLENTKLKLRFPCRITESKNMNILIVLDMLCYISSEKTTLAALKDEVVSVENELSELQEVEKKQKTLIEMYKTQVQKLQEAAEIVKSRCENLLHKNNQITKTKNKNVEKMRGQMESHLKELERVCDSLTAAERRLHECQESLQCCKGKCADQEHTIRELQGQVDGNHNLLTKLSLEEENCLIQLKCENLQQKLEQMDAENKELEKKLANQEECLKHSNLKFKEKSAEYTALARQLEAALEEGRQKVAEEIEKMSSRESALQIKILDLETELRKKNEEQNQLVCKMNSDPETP
UniProt Q9Y5N6: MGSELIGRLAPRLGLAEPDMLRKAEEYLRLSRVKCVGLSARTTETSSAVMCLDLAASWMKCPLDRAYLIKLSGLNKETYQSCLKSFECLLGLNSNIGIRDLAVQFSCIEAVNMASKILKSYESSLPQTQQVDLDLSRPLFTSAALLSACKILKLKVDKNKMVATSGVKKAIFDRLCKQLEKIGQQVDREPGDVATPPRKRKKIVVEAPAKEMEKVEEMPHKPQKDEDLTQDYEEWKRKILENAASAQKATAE
UniProt Q9BRQ3: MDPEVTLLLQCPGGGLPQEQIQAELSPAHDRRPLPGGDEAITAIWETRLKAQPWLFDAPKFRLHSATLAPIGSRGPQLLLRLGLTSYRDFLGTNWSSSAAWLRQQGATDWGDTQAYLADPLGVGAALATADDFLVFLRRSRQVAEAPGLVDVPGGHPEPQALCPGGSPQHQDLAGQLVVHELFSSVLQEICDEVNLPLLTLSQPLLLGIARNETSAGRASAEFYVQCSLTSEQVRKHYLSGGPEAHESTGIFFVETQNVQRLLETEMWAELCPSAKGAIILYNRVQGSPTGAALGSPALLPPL
UniProt Q9UBD5: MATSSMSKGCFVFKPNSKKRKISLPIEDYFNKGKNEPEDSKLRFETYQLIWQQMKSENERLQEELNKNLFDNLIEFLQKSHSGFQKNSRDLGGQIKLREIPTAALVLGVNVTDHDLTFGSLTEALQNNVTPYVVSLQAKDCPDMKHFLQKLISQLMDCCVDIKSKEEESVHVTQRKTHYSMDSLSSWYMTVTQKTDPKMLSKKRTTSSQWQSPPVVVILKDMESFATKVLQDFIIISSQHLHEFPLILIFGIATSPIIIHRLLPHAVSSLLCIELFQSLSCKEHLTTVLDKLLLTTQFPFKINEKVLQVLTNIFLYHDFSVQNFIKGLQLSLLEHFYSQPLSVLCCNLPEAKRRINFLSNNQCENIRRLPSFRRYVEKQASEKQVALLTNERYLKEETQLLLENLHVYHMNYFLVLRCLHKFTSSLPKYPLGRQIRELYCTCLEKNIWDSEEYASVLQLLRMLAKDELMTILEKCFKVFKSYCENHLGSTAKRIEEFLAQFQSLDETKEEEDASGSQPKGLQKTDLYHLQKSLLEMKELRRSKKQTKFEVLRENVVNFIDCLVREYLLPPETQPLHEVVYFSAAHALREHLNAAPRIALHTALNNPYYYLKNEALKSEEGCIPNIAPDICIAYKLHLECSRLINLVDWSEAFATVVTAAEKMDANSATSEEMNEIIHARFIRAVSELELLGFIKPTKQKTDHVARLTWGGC

Assays:
Assay in all cases: log2 fold change, soluble protein after heating vs DMSO (PISA); higher = thermal stabilisation; K562 cells, 10 uM, 30 min; active = over 0.2 and 3.5 SD of the protein, either way, in both replicates (recomputed)
[1] = compound: COC1=CC=C(C=C1)CN2C=CC3=C2C=C(C=C3)C(=O)NO
Method in brief: (§1)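 For each measurement, 10 μM compound was applied for 30 min to K562 cells at 2×10^6 cells/mL. Aliquots were heated for 3 min across 48°C-58°C, pooled, and extracted in PBS with 0.5% NP-40 at 4°C; the supernatant after 21,000xg for 90 min was soluble protein. This was quantified by TMTpro 16plex LC-MS/MS with channel sums equalised, and thermal stability was reported relative to control samples from duplicates, on a log2 fold-change scale.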

[2] = compound: COc1cc(C(=O)O)ccc1NC(=O)[C@@H]1N[C@@H](CC(C)(C)C)[C@](C#N)(c2ccc(Cl)cc2F)[C@H]1c1cccc(Cl)c1F [idasanutlin]
Method in brief: as §1

[3] = compound: COc1cc2nc(-c3cc(F)ccc3O)nc(N[C@@H]3CNC[C@H]3C(C)(C)O)c2cc1OC
Method in brief: as §1

[4] = compound: COc1cc2ncnc(Nc3ccc(F)c(Cl)c3)c2cc1OCCCN1CCOCC1 [gefitinib]
Method in brief: as §1

[5] = compound: CS(=O)(=O)CCNCc1ccc(-c2ccc3ncnc(Nc4ccc(OCc5cccc(F)c5)c(Cl)c4)c3c2)o1 [lapatinib]
Method in brief: as §1

[6] = compound: CS(=O)(=O)N1CCN(Cc2cc3nc(-c4cccc5[nH]ncc45)nc(N4CCOCC4)c3s2)CC1 [pictilisib]
Method in brief: as §1

[7] = compound: C[C@@H](Oc1cc(-c2cnn(C3CCNCC3)c2)cnc1N)c1c(Cl)ccc(F)c1Cl [crizotinib]
Method in brief: as §1

[8] = compound: Cc1cc(Nc2cc(CN3CCOCC3)c3nc(C)c(Cc4ccc(Cl)cc4F)n3n2)n[nH]1 [gandotinib]
Method in brief: as §1

[9] = compound: Cc1cc(Nc2cc(N3CCN(C)CC3)nc(Sc3ccc(NC(=O)C4CC4)cc3)n2)n[nH]1 [tozasertib]
Method in brief: as §1

[10] = compound: Cc1ccc(-n2nc(C(C)(C)C)cc2NC(=O)Nc2ccc(OCCN3CCOCC3)c3ccccc23)cc1 [doramapimod]
Method in brief: as §1

[11] = compound: Cc1ccc(C(=O)N(CCCN)[C@@H](c2nc3cc(Cl)ccc3c(=O)n2Cc2ccccc2)C(C)C)cc1 [ispinesib]
Method in brief: as §1

[12] = compound: C[C@H](Nc1ncnc2nc[nH]c12)c1cc2cccc(Cl)c2c(=O)n1-c1ccccc1 [duvelisib]
Method in brief: as §1

[13] = compound: Cc1cc(SCc2sc(-c3ccc(C(F)(F)F)cc3)nc2C)ccc1OCC(=O)O
Method in brief: as §1

[14] = compound: C[C@@H]1COCCN1C2=NC(=NC(=C2)C3(CC3)S(=O)(=O)C)C4=C5C=CNC5=CC=C4
Method in brief: as §1

[15] = compound: CON(C)C(=O)N1N=C(c2cc(F)ccc2F)S[C@@]1(CCCN)c1ccccc1 [filanesib]
Method in brief: as §1

[16] = compound: CS(=O)(=O)c1ccc(-c2cnc(N)c(C(=O)Nc3ccccc3)n2)cc1
Method in brief: as §1

[17] = compound: COc1cc(Nc2ncc3c(n2)-c2ccc(Cl)cc2C(c2c(F)cccc2OC)=NC3)ccc1C(=O)O [alisertib]
Method in brief: as §1

[18] = compound: COc1cccc2cc(-c3nc([C@H]4CC[C@H](C(=O)O)CC4)n4ncnc(N)c34)[nH]c12
Method in brief: as §1

[19] = compound: CO[C@H]1C[C@@H]2CC[C@@H](C)[C@@](O)(O2)C(=O)C(=O)N2CCCC[C@H]2C(=O)O[C@H]([C@H](C)C[C@@H]2CC[C@H](n3cnnn3)[C@H](OC)C2)CC(=O)[C@H](C)/C=C(\C)[C@@H](O)[C@@H](OC)C(=O)[C@H](C)C[C@H](C)/C=C/C=C/C=C/1C [zotarolimus]
Method in brief: as §1

[20] = compound: C[C@H](C1=CC=C(C=C1)C(=O)NC2=C3C=CNC3=NC=C2)N
Method in brief: as §1

Measured: log2 fold change

NXF1 (UniProt Q9UBU9)
inactive: [1] 0.013 | [2] 0.286 | [3] -0.039 | [4] -0.024 | [5] -0.176 | [6] 0.043 | [7] -0.116 | [8] -0.101 | [9] 0.256 | [10] 0.058 | [11] -0.017

ODC1 (UniProt P11926)
inactive: [1] -0.3 | [2] 0.227 | [3] 0.117 | [4] -0.108 | [5] -0.096 | [7] -0.045 | [12] 0.205 | [13] 0.087 | [10] 0.082

ODF2 (UniProt Q5BJF6)
inactive: [6] -0.333 | [14] -0.108 | [8] 0.004

NUDT7 (UniProt P0C024)
inactive: [1] 0.023 | [15] -0.092 | [4] 0.05 | [6] 0.115 | [16] 0.03 | [7] 0.004 | [14] 0.248 | [8] -0.23 | [10] 0.011 | [11] -0.157

OGFOD3 (UniProt Q6PK18)
inactive: [17] -0.064 | [3] 0.404 | [4] -0.078 | [18] -0.246 | [5] -0.163 | [11] 0.415

NUF2 (UniProt Q9BZD4)
inactive: [1] -0.042 | [19] -0.016 | [2] 0.019 | [17] 0.027 | [3] 0.127 | [4] -0.106 | [18] -0.216 | [5] -0.045 | [6] -0.233 | [7] -0.287 | [14] -0.246 | [20] 0.33 | [12] -0.176 | [8] 0.059 | [13] 0.244 | [10] 0.27

PABPC1 (UniProt E5RJM8)
inactive: [1] -0.428 | [15] -0.058 | [3] 0.068 | [5] -0.186 | [16] 0.144 | [7] -0.263 | [10] -0.027

ORAI1 (UniProt Q96D31)
inactive: [1] 0.017 | [17] 0.073 | [3] -0.033 | [4] -0.084 | [18] 0.001 | [5] 0.002 | [7] 0.073 | [14] -0.051 | [9] -0.23 | [10] -0.033 | [11] -0.117

OGFOD2 (UniProt Q6N063)
inactive: [1] -0.275 | [19] 0.034 | [2] 0.073 | [17] 0.007 | [4] 0.071 | [18] -0.033 | [6] -0.144 | [7] 0.04 | [14] 0.042 | [20] -0.058 | [8] 0.278 | [13] 0.034 | [10] 0.042 | [11] -0.032

Quoted at random: 2 records from the list
OGFOD2 (UniProt Q6N063)
inactive: [1] -0.275 | [19] 0.034 | [2] 0.073 | [17] 0.007 | [4] 0.071 | [18] -0.033 | [6] -0.144 | [7] 0.04 | [14] 0.042 | [20] -0.058 | [8] 0.278 | [13] 0.034 | [10] 0.042 | [11] -0.032

ODF2 (UniProt Q5BJF6)
inactive: [6] -0.333 | [14] -0.108 | [8] 0.004

(list continues)

NVL (UniProt O15381)
inactive: [17] -0.059 | [18] -0.007 | [6] 0.053 | [8] 0.259 | [11] -0.101

ODF2L isoform 4 (UniProt Q9ULJ1)
inactive: [1] -0.119 | [17] -0.055 | [4] -0.023 | [18] -0.073 | [7] 0.242 | [10] -0.045

ORC6 (UniProt Q9Y5N6)
inactive: [1] -0.12 | [15] -0.007 | [3] -0.008 | [4] -0.038 | [5] -0.104 | [16] 0.023 | [7] -0.043 | [14] -0.046 | [10] 0.067 | [11] -0.033

NUDT22 (UniProt Q9BRQ3)
inactive: [2] 0.19 | [17] -0.241 | [18] 0.105 | [12] -0.05 | [13] 0.186

ORC3 (UniProt Q9UBD5)
inactive: [2] -0.167
